From article PMC3841096
These are yes or no findings as the source states them, for the method shown. Binding seen in cells or lysates may run through a third protein. Binding can be weak; no strength is given.

Amino acid sequences for entries named in this document (tags omitted). A change or cut given only in a name is not applied to a line headed by its entry.
UniProt Q6NZM9: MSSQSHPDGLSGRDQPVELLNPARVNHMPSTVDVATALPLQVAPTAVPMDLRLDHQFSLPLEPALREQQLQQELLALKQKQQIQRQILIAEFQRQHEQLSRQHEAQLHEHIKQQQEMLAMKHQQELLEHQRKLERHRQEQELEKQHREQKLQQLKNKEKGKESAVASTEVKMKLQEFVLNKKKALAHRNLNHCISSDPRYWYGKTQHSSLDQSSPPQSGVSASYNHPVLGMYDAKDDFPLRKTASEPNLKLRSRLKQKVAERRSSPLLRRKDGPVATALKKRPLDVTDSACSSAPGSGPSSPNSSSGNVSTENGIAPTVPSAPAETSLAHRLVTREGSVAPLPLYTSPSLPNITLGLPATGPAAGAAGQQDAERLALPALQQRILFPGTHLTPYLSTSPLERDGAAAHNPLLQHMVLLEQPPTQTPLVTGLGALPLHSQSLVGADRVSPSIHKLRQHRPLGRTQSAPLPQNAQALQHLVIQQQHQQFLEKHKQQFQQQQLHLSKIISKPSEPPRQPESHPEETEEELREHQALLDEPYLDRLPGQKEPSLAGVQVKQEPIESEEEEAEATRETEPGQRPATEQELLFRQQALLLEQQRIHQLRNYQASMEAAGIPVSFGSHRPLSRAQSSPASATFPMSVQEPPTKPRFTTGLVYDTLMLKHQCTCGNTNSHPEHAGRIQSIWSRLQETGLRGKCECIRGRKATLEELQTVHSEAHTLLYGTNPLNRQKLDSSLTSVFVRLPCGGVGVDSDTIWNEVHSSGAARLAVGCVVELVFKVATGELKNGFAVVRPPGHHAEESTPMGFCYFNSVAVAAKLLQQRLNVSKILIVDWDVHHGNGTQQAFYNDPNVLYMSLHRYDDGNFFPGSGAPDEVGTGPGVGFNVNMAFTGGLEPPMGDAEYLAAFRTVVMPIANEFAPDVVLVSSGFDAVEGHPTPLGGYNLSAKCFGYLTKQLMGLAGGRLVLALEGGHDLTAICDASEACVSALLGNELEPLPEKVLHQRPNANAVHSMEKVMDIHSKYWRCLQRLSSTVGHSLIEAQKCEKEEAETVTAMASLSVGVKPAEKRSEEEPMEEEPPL
UniProt P42859: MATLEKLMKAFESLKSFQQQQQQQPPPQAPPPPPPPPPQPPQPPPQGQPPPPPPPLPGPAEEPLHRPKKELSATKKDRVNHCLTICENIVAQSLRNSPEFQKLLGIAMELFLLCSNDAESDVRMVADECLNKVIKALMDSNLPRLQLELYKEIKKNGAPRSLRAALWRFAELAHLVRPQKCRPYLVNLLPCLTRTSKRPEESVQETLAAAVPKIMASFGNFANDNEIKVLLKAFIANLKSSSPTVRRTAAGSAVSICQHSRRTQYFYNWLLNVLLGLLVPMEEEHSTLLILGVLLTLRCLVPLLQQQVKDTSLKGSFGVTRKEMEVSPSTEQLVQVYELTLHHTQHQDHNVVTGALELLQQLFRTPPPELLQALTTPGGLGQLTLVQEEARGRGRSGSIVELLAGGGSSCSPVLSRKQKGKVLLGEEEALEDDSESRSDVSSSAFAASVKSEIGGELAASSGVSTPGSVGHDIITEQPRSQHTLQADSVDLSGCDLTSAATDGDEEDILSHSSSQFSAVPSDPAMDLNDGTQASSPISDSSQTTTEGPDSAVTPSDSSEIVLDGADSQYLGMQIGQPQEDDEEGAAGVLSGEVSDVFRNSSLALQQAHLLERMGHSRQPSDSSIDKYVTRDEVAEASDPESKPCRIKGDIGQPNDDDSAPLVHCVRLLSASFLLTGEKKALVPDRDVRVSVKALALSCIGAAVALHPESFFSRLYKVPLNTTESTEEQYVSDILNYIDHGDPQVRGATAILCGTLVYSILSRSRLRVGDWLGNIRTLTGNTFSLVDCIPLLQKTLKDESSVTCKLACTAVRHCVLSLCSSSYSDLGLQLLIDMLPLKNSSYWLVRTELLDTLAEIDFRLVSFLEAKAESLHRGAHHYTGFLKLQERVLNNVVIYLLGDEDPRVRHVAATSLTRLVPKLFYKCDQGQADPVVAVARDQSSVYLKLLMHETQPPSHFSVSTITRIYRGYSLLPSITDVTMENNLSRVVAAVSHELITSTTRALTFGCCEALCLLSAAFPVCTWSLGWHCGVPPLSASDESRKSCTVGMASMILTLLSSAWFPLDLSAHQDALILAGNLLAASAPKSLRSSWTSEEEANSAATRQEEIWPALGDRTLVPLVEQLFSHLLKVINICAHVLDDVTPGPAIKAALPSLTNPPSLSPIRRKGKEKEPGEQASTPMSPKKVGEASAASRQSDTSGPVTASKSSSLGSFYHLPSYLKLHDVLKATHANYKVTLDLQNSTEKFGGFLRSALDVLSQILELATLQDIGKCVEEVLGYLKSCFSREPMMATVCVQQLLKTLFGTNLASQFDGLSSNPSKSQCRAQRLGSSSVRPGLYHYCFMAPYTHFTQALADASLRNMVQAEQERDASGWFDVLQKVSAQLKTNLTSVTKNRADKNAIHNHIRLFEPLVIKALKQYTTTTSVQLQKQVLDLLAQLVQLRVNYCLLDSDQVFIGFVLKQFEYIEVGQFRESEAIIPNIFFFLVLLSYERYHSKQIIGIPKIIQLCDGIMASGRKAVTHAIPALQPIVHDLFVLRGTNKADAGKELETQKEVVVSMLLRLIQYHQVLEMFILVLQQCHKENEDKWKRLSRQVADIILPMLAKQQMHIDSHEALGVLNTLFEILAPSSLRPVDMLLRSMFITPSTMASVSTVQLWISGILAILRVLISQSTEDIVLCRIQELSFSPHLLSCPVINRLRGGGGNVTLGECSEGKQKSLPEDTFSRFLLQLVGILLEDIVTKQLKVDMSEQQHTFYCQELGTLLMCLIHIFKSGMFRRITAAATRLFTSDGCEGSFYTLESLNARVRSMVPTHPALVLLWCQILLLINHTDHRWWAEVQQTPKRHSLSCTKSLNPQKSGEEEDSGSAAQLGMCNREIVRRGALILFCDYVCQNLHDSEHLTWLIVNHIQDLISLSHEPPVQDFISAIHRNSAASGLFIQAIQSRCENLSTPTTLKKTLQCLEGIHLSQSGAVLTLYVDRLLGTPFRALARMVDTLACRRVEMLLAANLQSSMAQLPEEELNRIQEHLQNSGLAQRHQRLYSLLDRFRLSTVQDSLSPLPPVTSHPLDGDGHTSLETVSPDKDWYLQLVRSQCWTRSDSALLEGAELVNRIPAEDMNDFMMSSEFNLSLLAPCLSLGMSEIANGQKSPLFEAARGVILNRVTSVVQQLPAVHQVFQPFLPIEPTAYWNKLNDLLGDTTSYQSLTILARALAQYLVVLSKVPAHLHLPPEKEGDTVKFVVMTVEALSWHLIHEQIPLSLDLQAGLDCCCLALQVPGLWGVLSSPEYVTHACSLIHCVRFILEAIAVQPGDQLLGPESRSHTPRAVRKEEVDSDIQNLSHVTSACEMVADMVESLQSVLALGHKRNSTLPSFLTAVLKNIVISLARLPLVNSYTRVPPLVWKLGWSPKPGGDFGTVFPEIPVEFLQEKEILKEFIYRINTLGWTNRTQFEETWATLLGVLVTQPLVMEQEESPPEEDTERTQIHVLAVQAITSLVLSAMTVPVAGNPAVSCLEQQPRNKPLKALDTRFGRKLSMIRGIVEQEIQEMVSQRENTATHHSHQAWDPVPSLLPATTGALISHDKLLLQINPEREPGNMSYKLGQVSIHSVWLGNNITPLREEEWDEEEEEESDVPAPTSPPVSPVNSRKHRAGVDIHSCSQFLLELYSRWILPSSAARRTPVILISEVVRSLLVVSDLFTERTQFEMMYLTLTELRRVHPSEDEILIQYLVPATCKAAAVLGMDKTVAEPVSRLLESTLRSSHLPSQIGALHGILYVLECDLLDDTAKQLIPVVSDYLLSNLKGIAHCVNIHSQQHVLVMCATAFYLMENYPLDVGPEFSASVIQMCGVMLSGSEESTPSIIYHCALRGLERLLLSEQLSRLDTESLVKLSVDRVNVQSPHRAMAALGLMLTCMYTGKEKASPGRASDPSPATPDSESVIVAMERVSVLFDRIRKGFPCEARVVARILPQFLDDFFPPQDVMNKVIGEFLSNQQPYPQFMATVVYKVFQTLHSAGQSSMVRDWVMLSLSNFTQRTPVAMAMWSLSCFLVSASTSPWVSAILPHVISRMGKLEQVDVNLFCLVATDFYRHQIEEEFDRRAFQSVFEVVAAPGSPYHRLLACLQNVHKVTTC

Target: HDAC4 (endogenous, mouse brain) (mouse (endogenous in mouse brain)) (UniProt Q6NZM9)
Assay: co-IP; whole brain lysates of 8-wk-old mice in HEPES buffer, protein-G Dynabeads overnight at 4°C; immunoprecipitation with HDAC4 (DM-15 or H-92) or HDAC5 (ab56929) antibodies, HTT detected with MAB2166 or MW1

“mutant HTT of HdhQ150 knock-in mice (from UniProt P42859)” was tested, and the binding was “binds”.
